By UniProt entry, the sequences of proteins in these tests, tags left out. Residues count along the entry.
UniProt Q9UDY8, 340-824 limits assumed: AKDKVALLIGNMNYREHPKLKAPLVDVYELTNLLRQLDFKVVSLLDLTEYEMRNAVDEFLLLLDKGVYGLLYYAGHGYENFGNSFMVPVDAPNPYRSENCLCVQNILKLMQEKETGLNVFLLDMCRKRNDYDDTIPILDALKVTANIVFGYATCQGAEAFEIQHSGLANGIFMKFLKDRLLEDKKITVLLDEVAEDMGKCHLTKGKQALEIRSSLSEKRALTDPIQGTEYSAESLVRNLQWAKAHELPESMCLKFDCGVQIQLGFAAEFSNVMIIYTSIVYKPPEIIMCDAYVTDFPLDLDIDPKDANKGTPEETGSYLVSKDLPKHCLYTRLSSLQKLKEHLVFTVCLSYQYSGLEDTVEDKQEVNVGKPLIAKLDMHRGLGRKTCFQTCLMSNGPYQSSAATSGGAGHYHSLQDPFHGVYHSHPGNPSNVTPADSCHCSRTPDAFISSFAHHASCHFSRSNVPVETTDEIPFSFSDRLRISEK

In US20250051327A1, “MALT-1 MODULATORS” (EXSCIENTIA AI LIMITED, priority 2020, published 2025):

Assays:
[1] = test system: IL-2 secretion by human effector memory T cells (TEM); test: Effector memory T cells IL-2 release assay; conditions: read-out: CD4TC IL2 IC50; human CD4+ effector memory T cells, CD3/CD28 bead stimulation, 24 h
Description: Effector Memory T Cells IL-2 Release Assay
Test compound-mediated inhibition of NFκB signalling in T cells was assessed by quantification of the IL-2 secretion by human effector memory T cells (TEM) upon treatment and stimulation. Human TEM cells were isolated from buffy coats of healthy donors obtained from the French blood bank. First, peripheral blood mononuclear cells (PBMC) were purified from buffy coats diluted 1:1 with DPBS (Gibco, cat #14190-094) by Pancoll (PAN BIOTECH, cat #P04-60500) density gradient centrifugation at 400×g for 20 minutes. TEM cells were further enriched by negative immuno-magnetic cell sorting using a human CD4+ Effector Memory T Cell Isolation Kit (Miltenyi, cat #130-094-125) according to the manufacturer's instructions. Aliquots of 3×10E6 purified TEM cells were kept frozen in Cryo-SFM medium (PromoCell, cat #C-29912) in gas phase nitrogen until used. Cell purity was verified by flow cytometry analysis of 200 000 PFA-fixed cells previously labelled with monoclonal antibodies anti-CD4-PerCP-Cy5.5 (BD Pharmigen, cat #332772), anti-CD8-V500 (BD Biosciences, cat #561617), anti-CD14-Pacific Blue (Biolegend, cat #325616), anti-CD45 RA-FITC (Biolegend, cat #304106) and anti-CCR7-APC (in CD4+ Effector Memory T Cell Isolation Kit, Miltenyi, cat #130-094-125).
TEM cells were resuspended in complete RPMI medium composed of: RPMI 1640 (Gibco, cat #31870-025), 10% heat inactivated fetal bovine serum (Sigma, cat #F7524), 2 mM GlutaMAX (Gibco, cat #35050-038), 1 mM sodium pyruvate 100× (Gibco, cat #11360-039), 1% MEM non-essential amino acids solution (Gibco, cat #11140-035) and 100 U/mL penicillin, 100 μg/mL streptomycin (Sigma-Aldrich, cat #11074440001). 5,000 cells per well were plated onto flat clear bottom 384 well plates (Corning, cat #3770). 5,000 Dynabeads Human T-Activator CD3/CD28 (Gibco, cat #11132D) were added to each well for cell stimulation. Finally, 10 doses of test compound, originally prepared in DMSO by serial semi-log step dilution, were also added to cells in triplicate wells. Final DMSO concentration in wells was 0.1% in a total volume of 100 μL complete medium. Plates were incubated for 24 h at 37° C. in 5% CO2 atmosphere. After incubation, cell suspensions were centrifuged at 400×g and culture supernatants were recovered and stored at −80° C. Cell viability was assessed by flow cytometry after staining the cells with Fixable Viability Dye eFluor 780 (Invitrogen, cat #65-0865-14). IL-2 levels were determined in cell supernatants using an HTRF human IL-2 detection kit (Cisbio, cat #62HIL02PEH). […] Viability data were analysed similarly to exclude cytotoxicity as a cause of IL-2 decrease (see Table 1).

[2] = target: Recombinant human MALT-1 (amino acids 340-824) (Homo sapiens (Human), UniProt Q9UDY8); test: MALT-1 inhibition assay (fluorogenic substrate Ac-LRSR-Rh110-DP); conditions: read-out: MALT-1 IC50; recombinant human MALT-1, substrate Ac-LRSR-Rh110-DP

SMILES	pIC50 [1]	pIC50 [2]
CN(C(=O)C1CCS(=N)(=O)CC1)C(c1ccc(N2CCC3(CC3)c3c2cnc2cc(Cl)nn32)cc1)C(F)(F)F (centres unmarked)	7.27	–
CC(=O)N1CCC(C(=O)N(C)[C@@H](c2ccc(N3CC[C@H](C)c4c3cnc3cc(Cl)nn43)cc2)C(F)(F)F)CC1 (relative stereo) [CPD0074566, 1-Acetyl-N-[(1S)-1-[4-[(13rel-R)-4-chloro-13-methyl-2,3,7,10-tetrazatricyclo[7.4.0.0^2,6]trideca-1(9),3,5,7-tetraen-10-yl]phenyl]-2,2,2-trifluoro-ethyl]-N-methyl-piperidine-4-carboxamide]	–	7.48
COc1ccc2ncc(Nc3ccc([C@H](N(C)C(=O)C4CCS(=O)(=O)CC4)C(F)(F)F)cn3)c([C@H](C)OC)c2n1 (single isomer, unassigned)	6.24	–
COC(C)c1c(Nc2ccc(C(N(C)C(=O)C3CCS(=O)(=O)CC3)C(F)(F)F)cc2)cnc2ccc(Cl)nc12 (single isomer, unassigned) [CPD0019497]	7.64	–
COC(C)c1c(Nc2ccc(C(N(C)C(=O)C3CCS(=O)(=O)CC3)C(F)(F)F)cc2)cnc2ccc(Cl)nc12 (single isomer, unassigned) [CPD0019498]	6.91	–

pIC50: −log10 of the molar value. Structures were worked out from names or drawings and are uncertain.
